No constants are given. Whether binding was seen depends on the method and setting. Binding seen in cells or lysates may run through a third protein. A yes stands for co-enrichment or nearness to the bait. Other partners may have been found. For part of these data: Sequences can lack the tags named with a protein.
T1: GFP-D1 (D. melanogaster) (UniProt P22058)
T1 sequence: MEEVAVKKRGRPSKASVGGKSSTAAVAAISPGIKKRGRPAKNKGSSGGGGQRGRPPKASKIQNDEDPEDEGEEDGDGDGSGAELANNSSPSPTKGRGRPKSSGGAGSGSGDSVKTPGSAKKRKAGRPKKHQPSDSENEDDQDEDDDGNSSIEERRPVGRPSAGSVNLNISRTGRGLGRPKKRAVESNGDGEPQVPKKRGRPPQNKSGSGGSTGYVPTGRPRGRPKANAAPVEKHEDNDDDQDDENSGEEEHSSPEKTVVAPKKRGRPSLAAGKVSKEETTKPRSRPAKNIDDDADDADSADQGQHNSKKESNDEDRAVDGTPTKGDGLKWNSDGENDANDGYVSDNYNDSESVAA

By UniProt entry, the sequences of proteins in these tests, tags left out. Where a name states a change or a piece, a line headed by the entry shows the natural chain unless it says otherwise.
UniProt A1ZBF8: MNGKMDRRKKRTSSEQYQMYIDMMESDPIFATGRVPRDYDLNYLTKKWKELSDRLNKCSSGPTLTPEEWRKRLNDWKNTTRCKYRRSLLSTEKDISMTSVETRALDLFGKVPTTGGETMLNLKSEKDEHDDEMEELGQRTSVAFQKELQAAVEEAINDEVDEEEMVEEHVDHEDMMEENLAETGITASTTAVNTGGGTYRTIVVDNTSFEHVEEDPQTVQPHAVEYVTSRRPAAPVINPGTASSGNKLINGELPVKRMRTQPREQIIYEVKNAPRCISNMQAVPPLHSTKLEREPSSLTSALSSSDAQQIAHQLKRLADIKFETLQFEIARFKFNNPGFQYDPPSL
UniProt Q9VGK3: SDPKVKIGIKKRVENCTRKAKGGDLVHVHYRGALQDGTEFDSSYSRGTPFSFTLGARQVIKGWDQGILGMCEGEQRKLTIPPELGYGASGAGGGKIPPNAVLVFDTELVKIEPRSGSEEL
UniProt Q9VCH7: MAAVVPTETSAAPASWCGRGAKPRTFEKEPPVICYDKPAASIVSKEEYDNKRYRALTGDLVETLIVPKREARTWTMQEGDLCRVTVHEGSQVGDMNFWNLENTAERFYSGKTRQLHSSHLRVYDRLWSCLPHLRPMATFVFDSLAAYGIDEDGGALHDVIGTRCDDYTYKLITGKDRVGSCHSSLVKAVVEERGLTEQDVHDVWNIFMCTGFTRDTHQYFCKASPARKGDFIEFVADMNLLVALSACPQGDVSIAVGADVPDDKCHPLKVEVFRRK

T2: GFP-Piwi (D. melanogaster) (UniProt Q9VKM1)
T2 sequence: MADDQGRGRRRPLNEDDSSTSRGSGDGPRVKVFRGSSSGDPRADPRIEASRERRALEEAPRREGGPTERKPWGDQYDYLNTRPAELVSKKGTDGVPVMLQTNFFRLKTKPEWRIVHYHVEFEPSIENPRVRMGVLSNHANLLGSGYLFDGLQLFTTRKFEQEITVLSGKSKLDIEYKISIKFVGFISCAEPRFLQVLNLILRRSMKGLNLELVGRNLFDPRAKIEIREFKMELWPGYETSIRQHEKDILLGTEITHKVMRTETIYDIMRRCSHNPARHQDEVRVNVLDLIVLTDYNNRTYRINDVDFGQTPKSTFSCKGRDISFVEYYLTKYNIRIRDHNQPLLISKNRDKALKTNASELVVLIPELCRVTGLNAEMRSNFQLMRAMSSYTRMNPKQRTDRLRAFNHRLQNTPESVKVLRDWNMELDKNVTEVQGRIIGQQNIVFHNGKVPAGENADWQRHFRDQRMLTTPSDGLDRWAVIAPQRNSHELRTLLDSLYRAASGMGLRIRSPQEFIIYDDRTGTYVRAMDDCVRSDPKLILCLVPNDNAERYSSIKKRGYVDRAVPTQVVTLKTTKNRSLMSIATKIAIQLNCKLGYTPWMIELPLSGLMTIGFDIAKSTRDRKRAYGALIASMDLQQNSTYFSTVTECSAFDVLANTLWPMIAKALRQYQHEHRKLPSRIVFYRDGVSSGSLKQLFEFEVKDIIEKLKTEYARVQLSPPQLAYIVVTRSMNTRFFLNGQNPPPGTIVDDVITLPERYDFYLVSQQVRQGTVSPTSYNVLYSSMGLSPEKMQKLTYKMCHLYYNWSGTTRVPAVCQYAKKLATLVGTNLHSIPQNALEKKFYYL


Key:
[1] = biological target: GFP-Prod (D. melanogaster) (UniProt A1ZBF8); assay: affinity purification with mass spectrometry; GFP-D1 or GFP-Prod captured on anti-GFP nanobody magnetic beads from lysate of nuclei isolated from embryos (450 mM NaCl, 1% Triton-X, benzonase), 90 min at 4°C; washes with 450 mM NaCl; hits against the NLS-GFP control pulldown
GFP-D1 (D. melanogaster) [2] = biological target: T1, GFP-D1 (D. melanogaster); assay: as above
[3] = biological target: T2, GFP-Piwi (D. melanogaster); assay: affinity purification with mass spectrometry; GFP-Piwi captured on anti-GFP nanobody magnetic beads from embryo lysate (lysed as the ovaries: 450 mM NaCl, 0.2% NP40, benzonase), 90 min at 4°C; hits against the NLS-GFP control pulldown
[4] = biological target: GFP-Prod (D. melanogaster) (UniProt A1ZBF8); assay: affinity purification with mass spectrometry; GFP-D1 or GFP-Prod captured on anti-GFP nanobody magnetic beads from ovary lysate (450 mM NaCl, 0.2% NP40, benzonase), 90 min at 4°C; washes with 450 mM NaCl; hits against the NLS-GFP control pulldown
GFP-D1 (D. melanogaster) [5] = biological target: T1, GFP-D1 (D. melanogaster); assay: as above

Molecule | binding [1] | binding (GFP-D1 (D. melanogaster) [2]) | binding [3] | binding [4] | binding (GFP-D1 (D. melanogaster) [5])
CG14715 (from UniProt Q9VGK3) | binds | binds | binds |  | 
CG10208 (from UniProt Q9VCH7) | binds | binds | binds |  | 
Aurora B (protein, UniProt Q9VKN7 1-329) MTLSRAKHANRNHLPHLLAKVPEEHQEPIKNMCLKMMSHDAYGQPYDWSPRDFEMGAHLGRGKFGRVYLARERHSHYLVAMKVMFKEELRKGCVQRQVLREIEIQSRLKHPHILRLLTWFHDESRIYLALEIASEGELFKHLRGAPNHRFDEPRSAKYTYQVANALNYCHLNNVIHRDLKPENILLTSTDDLKLADFGWSAHTPNNKRRTLCGTLDYLPPEMVDGNSYDDSVDQWCLGILCYEFVVGCPPFESNSTESTYSKIRRMEISYPSHLSKGCKELIGGLLRKESKGRITLVDVMTHYWVKAGMAERELQLQKRERGKENTARN |  | binds |  |  | 
Maelstrom (Mael) (protein, UniProt Q9VNS0 1-459) MAPKKHSGFMMFVNEWRNRNAEGRRMTLAQAVSHCGTIWEKMNTQQRGPYNSGGKDANVAQRAKRESSNGHGQVDKAQREATESLMDMKRTIERLVLNAKMSHDLENAKFVFVAFNYFTKALTTDVYVPAEFAACEYSLKEGIRSIYSTMIDPGQIIFGQGSDALLHSSTTHDLPLPPNALGEKNMTKLYRNIVDYLSKCQGKGKTLVVFTPAENITMVKSCFRYLECDDDFRDGGEKIQVFDIQYLLFILKKEVMNVADLNDEKINKFATDAFFKKDFFEFTAGIACQYHEDNDRTKYCTQSMVTRWAYTFTDFMCGDLAITVQPGKHIPAQTKPNYLIISSYASSLDHESSFDSFYSLPGSGVKKESQPEACSLSSSRLSVASSSYKPIDHTSFAANLNEVSEFPSLGMRNSSKHHGIAASAQREWNARNLPTHSRLIRKVSDNDFSVNGADGKLKK | binds | binds |  |  | 
Smn (protein, UniProt Q9VV74 1-226) MSDETNAAVWDDSLLVKTYDESVGLAREALARRLADSTNKREEENAAAAEEEAGEISATGGATSPEPVSFKVGDYARATYVDGVDYEGAVVSINEEKGTCVLRYLGYENEQEVLLVDLLPSWGKRVRREQFLIAKKDEDEQLSRPKASAGSHSKTPKSSRRSRISGGLVMPPMPPVPPMIVGQGDGAEQDFVAMLTAWYMSGYYTGLYQGKKEASTTSGKKKTPKK |  |  |  |  | binds

Continued, values first:

binding [1] | binding (GFP-D1 (D. melanogaster) [2]) | binding [3] | binding [4] | binding (GFP-D1 (D. melanogaster) [5]) | Molecule
 | binds | binds |  |  | Female independent of transformer (Fit) (D. melanogaster (endogenous in embryos))
 | binds | binds |  |  | Ugt35D1 (D. melanogaster (endogenous in embryos))
 | binds |  |  |  | Borealin (Borr) (protein, UniProt Q9VLD6 1-315) MPRTKIPKNSKRNREVANREEKVRLYELKMDSRLISIDSLETKFLSAVDHQVKTLLGQVQKELANLKMPEVLRLFEELDRFSDFKASDQTQLLASMSMSGSAIEGHAPSATGSRNDEEDSSIGASGGSILAAHTGSLLRSTKAMRTPGPLHSARARRARRSRSACGDLNILHSAKPPSISSSSSSSRNSRSKLRTPMASRAKAFSADRTPLKQKQMRSGSPTTPPMAFLRYPKPGEVALSKYGSPMVAQVMPDKFANVNIPIRNGVLSLRPKKLDADEVESNLLENLDEDTLNQIKTLHENLQMIVNKASQAVFK
binds |  |  |  |  | bocks (protein, UniProt Q709R6 1-399) MSDLSYLDTLGNKELLAKCLEHGLPGVPVTDSTRSVIIRRLKAKITGVPLNKSKSASKKAIPRRETVHGSQVTTPTSEPVRRTPGKSAGRTSSNNNKISEQSRRTIAYGLDNTSISGRSVQTTTTVSDMSSQSEDDDSYMVDSPVPNYSKDQQPRRYVSLAKSGVLTTSYTREVDQPLYEQEDIPRSYTYERPHVPAATLHALPTYEPRIEPSTYRPTDLGFSRPLLTQTNLNSTSYEESSTYNPKLSPISPRNTFSGSARPFGGPAPAPAPIRQRQSVPVSGSNLARGRLLQPTTAVNTLYPQLNEFYDQPNDAGEPMETESESEVEEVPINSHFQKNRFSPLARKPLVRHHDQVSPMAQFRALAVSLDQKYNLKFYLILVVSVMLATMVYVVLTPNA
binds | binds |  | binds | binds | CG5504 (protein, UniProt Q27237 63-520) AKDYYATLGVAKNANGKDIKKAYYQLAKKYHPDTNKEDPDAGRKFQEVSEAYEVLSDEQKRREYDTYGQTAENIGRQGGGFPGGGAGGFGPEGFSQSWQFRSSIDPEELFRKIFGEGNFRTNSFDDFADSKFGFGQAQEMVMDLTFAQAARGVNKDVNVNVVDQCPKCAGTKCEPGTKPGRCQYCNGTGFETVSTGPFVMRSTCRYCQGTRQHIKYPCSECEGKGRTVQRRKVTVPVPAGIENGQTVRMQVGSKELFVTFRVERSDYFRREGADVHTDAAISLAQAVLGGTVRVQGVYEDQWINVEPGTSSHHKIMLRGKGLKRVNAHGHGDHYVHVKITVPSAKKLDKKRLALIEAYAELEEDTPGQIHGIANRKDGSKQATAGASEEPGAGAAAKASAAAAGSGASKPGPGAEKSEGKDQWTDNEKTKAKEGGGSGSGQGDGGGGGFISKIKSMFN
 | binds |  |  |  | Mes-4 (protein, UniProt Q8MT36 1-1427) MKLSTDAHSEIEGDAAHGNVLCNSASDSLTATDEVAAGNDESVATEGDDVEIPRDTNNSTPVRLLDKPGQNPVQNGAQPAAEESELESQRQTPVQKQQQQRVSMVNRKRDLINLQSALSPKYIGYANANSPTPLSDSDDTIRTTRRRVNQAAALNNSSAGETLAHDNASPRTPGGGGGGGGDDSANQLLSKTYMSPIEKLLIKNGASSPNSTGFEAGSEDLGIRPIVRKHVKRKMKRVPKAKVTLELDEKNQQEVDEKSVKTEPIDEEVDRTDEAPTQEAQTTAISIKSETEAEHKAAVDVHIKQEDTIRLDIVNNPVESTSIVITEEPKDLEKSTEELAFALPLASSTEVDLKSPPDLSSTALATSIKSPSSVSIDSAKGLSIVTDPGWPTYQVGDLFWGKVFSYCFWPCMVCPDPLGQIVGNMPSHPQRSSLDNANVPIQVHVRFFADNGRRNWIKPENLLTFAGLKAFDDMREELRIKHGPKSAKYRQMVPKRTKVVIWRQAIEEAQAMTQIPYSDRLEKFYQTYENVVTLNRQKRKRTKYMMQDTSDVGSSLYDSTDNLHNKQGTQLLAVKRERSESPFSPAFSPVKSKNEKRAKRRKLSNGTEADTGSNSMAVTPSQTETTVDSSAYENPEFRQLLSAVMEYVMMNRSDEKVEKVLLSVVSNIWSLKQIQLRELERDLASGEIEEPLGSSVVGRGSGVGTIKRLSNRLMTMMVRRSMTPVVTPSTTPAPSEPDRRLSEPPKTKKPVNRPIEEVIEDILQLDSKYLFRGLSREPICKYCYQAGSDLVRCSRTCSSWLHADCLERKVTGAPMPKIGSRKALVIPPTSKSPSPDEDHVTADAKEVVAVGTSLVCHECNVGEPEGCVICHQVESPAVPSTPRKEDSSSHTPIEDKLLTCSQPMCGKRFHTSCCKYWPQASSSKHSARCPRHVCHTCVSDDPSGKFQQLGSSKLAKCVRCPATYHQLSKCIPAGTQMLNTTNIICPRHNIAKADAHVNVLWCYICVKGGELVCCETCPIAVHAHCRNIPIKTNESYICEECESGRLPLYGEIVWAKFNNFRWWPAIILPPTEVPSNILKKAHGENDFVVRFFGTHDHGWISRRRVYLYIEGDTGDGHKTKSQLFRNYTTGVEEASRFLPIIKARRQEQDMERQSGNKLHPPPYVKIKTNKAVPPLRFSQNLEDLSTCNCLPVDEHPCGPEAGCLNRMLFNECNPEYCKAGSLCENRMFEQRKSPRLEVVYMNERGFGLVNREPIAVGDFVIEYVGEVINHAEFQRRMEQKQRDRDENYYFLGVEKDFIIDAGPKGNLARFMNHSCEPNCETQKWTVNCIHRVGIFAIKDIPVNSELTFNYLWDDLMNNSKKACFCGAKRCSGEIGGKLKDDAVKAHAKLKQMRRAKASAVRIHVKPKKTPKVKHISADDEPMDAKDE
